# Measurements from ChEMBL document CHEMBL1126160, “Synthesis and structure-activity relationships of 7-diazabicycloalkylquinolones, including danofloxacin, a new quinolone antibacterial agent for veterinary medicine” (J Med Chem, 1992).
# Assay: Compound was evaluated for aqueous solubility at pH 7.2
# Conditions: buffer
structure (smiles),measurement,value
CCn1cc(C(=O)O)c(=O)c2cc(F)c(N3CCN(C)CC3)cc21 [PEFLOXACIN],solubility,197 µg/mL
